Source: PubChem BioAssay AID1347421 (Sanford-Burnham Center for Chemical Genomics, 2020)
The full ranking holds about 1,500 compounds; the median of “activity” is about 2, and the lowest 2% start at about -18. This is one part of the list. Activity calls are given as the source filed them.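 Rule for the calls: active = inhibition of at least 40% at 10 µM; inconclusive = no clear call, values can overlap the other calls; inactive = the rest.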

Protein sequences, listed by entry. Tags and fused reporters are not part of them. Lines headed by an entry give the natural chain unless they say otherwise; changes in a name come on top.
UniProt O00391: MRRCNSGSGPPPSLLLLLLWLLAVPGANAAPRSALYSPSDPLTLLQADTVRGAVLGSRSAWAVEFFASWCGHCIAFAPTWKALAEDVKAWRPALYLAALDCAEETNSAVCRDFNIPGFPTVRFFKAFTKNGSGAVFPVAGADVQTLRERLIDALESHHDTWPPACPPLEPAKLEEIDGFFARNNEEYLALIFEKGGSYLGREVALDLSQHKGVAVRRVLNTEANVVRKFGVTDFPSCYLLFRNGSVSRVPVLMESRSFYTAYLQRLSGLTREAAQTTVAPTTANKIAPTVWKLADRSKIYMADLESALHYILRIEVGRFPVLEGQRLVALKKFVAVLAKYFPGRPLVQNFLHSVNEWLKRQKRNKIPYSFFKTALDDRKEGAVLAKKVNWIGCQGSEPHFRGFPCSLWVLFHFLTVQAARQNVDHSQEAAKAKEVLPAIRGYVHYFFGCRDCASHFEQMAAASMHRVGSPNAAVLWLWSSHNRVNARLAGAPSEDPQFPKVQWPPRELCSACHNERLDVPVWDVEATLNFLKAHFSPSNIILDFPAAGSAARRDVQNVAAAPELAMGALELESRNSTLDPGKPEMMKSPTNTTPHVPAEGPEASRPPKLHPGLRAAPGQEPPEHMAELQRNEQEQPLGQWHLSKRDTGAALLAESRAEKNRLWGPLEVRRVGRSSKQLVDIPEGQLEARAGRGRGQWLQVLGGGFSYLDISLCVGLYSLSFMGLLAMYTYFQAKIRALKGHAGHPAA

biological target: Sulfhydryl oxidase 1 (Homo sapiens) (UniProt O00391); assay: human QSOX1 sulfhydryl oxidase inhibition – biochemical, ROS-Glo luminescence, single concentration, confirmation (AID 1347421); conditions: recombinant hQSOX1, RNase A substrate, ROS-Glo H2O2 luminescence; at 10 µM;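 note: 0% = DMSO wells with enzyme and 100% = wells lacking QSOX1 enzyme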

Compound | activity
O=C1CCCN1CCC(=O)N1CCCC(CCc2ccccc2)C1 (stereo not drawn) | 7.5%
O=C(Nc1n[nH]c(C2CCCCC2)n1)N1CCOC2(CCCC2)C1 | 1%
CN(C)CCNC(=O)c1ccc(OC2CCN(C3CCSC3)CC2)c(Cl)c1 (stereo not drawn) | 2.6%
CCc1noc(C)c1C(=O)NC1CC(=O)N(CC2CCCCC2)C1 (stereo not drawn) | 5.4%
O=C(NC1CC(=O)N(Cc2ccc(F)cc2)C1)c1ccc[n+]([O-])c1 (stereo not drawn) | 10.4%
Cc1noc(-c2ccc(N3C[C@H]4CC[C@H]3C4)nc2)n1 | inactive: -3.6%
CN(C)Cc1ccc(C(=O)N2CCCC(CCc3ccc(F)c(F)c3)C2)o1 (stereo not drawn) | 5.2%
COCCNc1nnnc2c1sc1nc(N3CCOCC3)c3c(c12)CCCC3 | inactive: -11.5%
CCS(=O)(=O)N1CCN(CC2(c3cccc(F)c3)CCOC2)CC1 (stereo not drawn) | inactive: -2.4%
Cn1ccnc1CN1CCN(C(=O)c2cn(Cc3ccccc3C(F)(F)F)nn2)CC1 | 3.1%
CN(CCc1ccccn1)C(=O)CCC1CCCN(C(=O)Cn2nc3ccccc3n2)C1 (stereo not drawn) | 7.7%
COc1ccc(OCC(O)CN2CCC(O)CC2)c(CNCC(C)(C)CO)c1 (stereo not drawn) | 7.4%
COC(=O)C1CCN(CC(O)COc2cccc(CN3CCOCC3)c2)CC1 (stereo not drawn) | inactive: -2.5%
O=C(c1cn(CCC2CCCCC2)nn1)N1CCCN(c2ncccn2)CC1 | 2.6%
COc1cc(CNCCN2CCOC2=O)ccc1OCC(O)CN1CCSCC1 (stereo not drawn) | 5.7%
CN(Cc1cnccn1)C(=O)CC1C(=O)NCCN1Cc1cccc(Oc2ccccc2)c1 (stereo not drawn) | inactive: -2.7%
C=CCC(O)(CC=C)CNC(=O)C1CCC(=O)N(CCc2ccccn2)C1 (stereo not drawn) | inactive: -7.2%
COc1ccc(CN2CCNC(=O)C2CC(=O)NCc2ccc(C)o2)cc1C (stereo not drawn) | inactive: -6.4%
CN1CCN(C(=O)Nc2ccc(Cl)cc2Cl)CC1 | inactive: -5.2%
CCCCOc1ccc(OCC(=O)NC)cc1 | 7.7%
O=C1N(Cc2ccccc2F)CCCC1(O)CN1CCC2(CC1)OCCO2 (stereo not drawn) | 7.3%
Cc1nc(CCNC(=O)C2CCC(=O)N(CCc3cccc(F)c3)C2)sc1C (stereo not drawn) | 7.2%
COC(=O)c1ccc(Cl)c(NC(=O)CN2CCN(C)CC2)c1 | 3.8%

Compound | activity
O=C(CCc1cnccn1)NCc1cccnc1N1CCc2ccccc2C1 | inactive: -2.3%
CC(=O)N1CCN(Cc2nc(-c3cccc(Oc4ccccc4)c3)oc2C)CC1 | inactive: -5.5%
COC(=O)CCC(=O)N1CCC(CCC(=O)Nc2cccc(C)c2)CC1 | 0.2%
Cc1ccc(S(=O)(=O)Cc2ccc(C(=O)N3CCCCC3C)cc2)cc1 (stereo not drawn) | inactive: -15.4%
CN(Cc1ccccc1)C(=O)c1nc2ccccn2c1CNCCCN1CCOCC1 | 8.1%
Cc1cnc(C)c(N2C[C@H]3OC(=O)N(CCc4ccc(F)cc4)[C@H]3C2)n1 | 7.8%
COc1ccc(C(=O)N2CCOC(CC3CCCCC3)C2)c(OC)n1 (stereo not drawn) | 7.6%
OCCC1CN(Cc2cccc3ccccc23)CCN1C1CCCC1 (stereo not drawn) | inactive: -0.7%
COc1cccc(C(=O)Nc2nc(C)c(C)s2)c1OC | 36.7%
COc1cc(C)ccc1OCc1nc(C(=O)NCc2ccc(C)o2)co1 | inactive: -1.6%
COCCN1CCC(CN(Cc2ccncc2)Cc2ccccc2OCCO)CC1 | inactive: -2.4%
C=C(C)CN(CC)C(=O)c1cc(COc2ccc(-n3cncn3)cc2)on1 | 9.4%
CC(=O)Oc1ccc(/C=C/c2ccc3ccccc3n2)cc1Cl | active: 55.2%
CC(C)(C)c1ccc(-c2cn[nH]c2N)cc1 | inactive: -2.1%
CSc1ncc(CN2CCCC(CO)(CCOc3ccccc3)C2)cn1 (stereo not drawn) | 10.5%
OC(COc1ccccc1CN1CCSCC1)CN1CCc2ccccc2C1 (stereo not drawn) | 8.9%
CCOC(=O)CCNC(=O)N1CCOC(Cc2cccc(OC)c2)C1 (stereo not drawn) | 2.5%
CSCCC(=O)N1CCc2[nH]nc(-c3ccc4c(c3)OCO4)c2C1 | inactive: -4.4%
O=C1NCCN(CC(c2ccccc2)c2ccccc2)C1CC(=O)N1CCCCC1 (stereo not drawn) | 7.3%
Cn1c(CCC2CCCCC2)nnc1SCC(N)=O | 6.4%
COc1ccc(Cl)cc1Nc1nc(N)nc(CN2CCN(c3ccccc3)CC2)n1 | 2.1%
COc1cccc(CC2CN(C(=O)Cc3ccn(C)c3)CCO2)c1 (stereo not drawn) | inactive: -1.3%
O=C(CCN1CCCO1)N1CCCC(N2CCN(c3cccc(C(F)(F)F)c3)CC2)C1 (stereo not drawn) | inactive: -0.1%

2 entries picked at random from those above:
Compound | activity
O=C1N(Cc2ccccc2F)CCCC1(O)CN1CCC2(CC1)OCCO2 (stereo not drawn) | 7.3%
CN(CCc1ccccn1)C(=O)CCC1CCCN(C(=O)Cn2nc3ccccc3n2)C1 (stereo not drawn) | 7.7%

Carrying on.

Compound | activity
COc1ccccc1CCN1CCC(CN(C)C(=O)c2cn3ccccc3n2)CC1 | 0.1%
CCC(CO)NCc1c(F)cccc1Cl (stereo not drawn) | 4.2%
Cn1nc(C(=O)N2CCc3ccccc32)c2ccccc2c1=O | inactive: -5.3%
Cc1oc(-c2cccs2)nc1CN(C)CC1COc2ccccc2O1 (stereo not drawn) | inactive: -0.6%
Cc1ccc2c(c1)N(CC(=O)NC1CCCCC1)C(=O)CO2 | inactive: -9.8%
O=C(Nc1cccnc1)c1cccc(S(=O)(=O)N2CCCC2)c1 | inactive: -9.8%
O=C(NC1CC(=O)N(CCCc2ccccc2)C1)C(=O)c1ccco1 (stereo not drawn) | 7.7%
CN1CCN(CC(O)COc2ccc(CNCc3ccccc3Cl)cc2)CC1 (stereo not drawn) | 5.5%
CN(Cc1ccccc1)C(=O)CCC1CCN(C(=O)C2COc3ccccc3O2)CC1 (stereo not drawn) | 6.6%
CN(C)CCNC(=O)CCC1CCN(Cc2cc3ccccc3s2)CC1 | 4.2%
CC(Oc1ccccc1)C(=O)N1CCc2onc(-c3ccc(F)c(F)c3)c2C1 (stereo not drawn) | 10.1%
Cc1nn(C)c(C)c1-c1cnc(C2CC(=O)N(CC(C)C)C2)[nH]1 (stereo not drawn) | 5.6%
COCCN(CC1CC1)CC1CCN(Cc2ccccc2F)CC1 | inactive: -0.9%
Cc1ccc(Nc2nnc(C)s2)c(C)c1 | 3.7%
CCN(CC)CC(=O)N1CCOC(Cc2ccccc2Cl)C1 (stereo not drawn) | 2.5%
CN(Cc1csc(-c2cccs2)n1)CC1(O)CCCN(C)C1=O (stereo not drawn) | 4.1%
O=c1cc(O)nc(SCc2ccc(F)cc2)[nH]1 | inactive: -4.8%
Cc1cc(CNCc2cccc(OCC(O)CN3CCCCCC3)c2)on1 (stereo not drawn) | inactive: -2.7%
O=C(C1CCN(c2ccccc2)C1=O)N1CCN(Cc2ccccc2)CC1 (stereo not drawn) | inactive: -2.5%
Cc1cccc(N2CCN(C(=O)CC3C(=O)NCCN3Cc3ccccc3F)CC2)n1 (stereo not drawn) | 6.9%
O=C1CCCCN1CCC(=O)N1CCOC(CCc2ccccc2)C1 (stereo not drawn) | 5%
CCn1ncc(CN2CCCC(Nc3ccc4c(c3)OCO4)C2)c1C (stereo not drawn) | 3.3%

Laid out differently: 3 of the compounds above.
Compound	activity
CC(=O)N1CCN(Cc2nc(-c3cccc(Oc4ccccc4)c3)oc2C)CC1	inactive: -5.5%
CC(C)(C)c1ccc(-c2cn[nH]c2N)cc1	inactive: -2.1%
Cc1nn(C)c(C)c1-c1cnc(C2CC(=O)N(CC(C)C)C2)[nH]1 (stereo not drawn)	5.6%
